Laboratory results taken from article PMC10704377.
For at least one entry, the source does not settle the construct or the ends of the probe.

Sequences of proteins named here, by UniProt entry; tags and fusion partners are left off. A change or cut given only in a name is not applied to a line headed by its entry.
UniProt Q9GZX7: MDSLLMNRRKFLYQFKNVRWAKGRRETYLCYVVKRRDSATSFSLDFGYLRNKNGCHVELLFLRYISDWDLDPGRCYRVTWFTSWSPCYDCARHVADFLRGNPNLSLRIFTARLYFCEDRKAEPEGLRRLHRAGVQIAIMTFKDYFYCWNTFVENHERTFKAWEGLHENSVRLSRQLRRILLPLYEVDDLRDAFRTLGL

Target: GST-AID (activation-induced cytidine deaminase) (UniProt Q9GZX7)
Test: EMSA
Details: 100 mM KCl, 0.5 and 1 ug AID, complex stays in well; Oligos heat-denatured and slowly cooled in 100 mM KCl; AID 0.5-1 ug, 4 °C, 1 h; 4% native PAGE with 100 mM KCl in gel and buffer, room temperature; recombinant protein; protein details: GST (pGEX-5X-3p); label: 5'-32P; folded or branched DNA

Row | Sequence | binding result
1 | ACTGGGGCTGGGGTGGGGGGTAATCCAGAACTGGATCGGGGT [KD16] | binds
2 | TCTGGGTTTTGGGGGGCTGGGGGTTGCTTTGCGGTGGGCA [KD18] | binds
